This note sets out measurements from patent publication US20080003127A1, “Non-Ferrous Metal Cover Gases” (Honeywell International Inc., priority 2006, published 2008).

Series [1] in a line: Global Warming Potential (GWP). The conditions noted are these: 100 year time horizon, relative to CO2.

On to `O=C(C(F)(F)C(F)(F)F)C(F)(C(F)(F)F)C(F)(F)F` [C2F5C(O)CF(CF3)2], for which the “GWP (100 Yr)” value in series [1] worked out at 10. Besides, the “Atmospheric Lifetime (Yr)” value in the series “Atmospheric lifetime” came to 0.1 Yr.

As to `FC(F)(F)C(F)(F)F` [C2F6], in series [1], the “GWP (100 Yr)” value is given as 11,400. In “Atmospheric lifetime”, the “Atmospheric Lifetime (Yr)” value is 10,000 Yr.

On to `O=C=O` [CO2, carbon dioxide], for which the “GWP (100 Yr)” value in series [1] came out at 1. Moreover, in the series “Atmospheric lifetime”, the “Atmospheric Lifetime (Yr)” value is reported as 100-150 Yr.

As for `FCC(F)(F)F` [HFC-134a, 1,1,1,2-tetrafluoroethane], in series [1], the “GWP (100 Yr)” value is 1600. In addition, in “Atmospheric lifetime”, the “Atmospheric Lifetime (Yr)” value is 13.6 Yr.

Consider `CC(F)F` [HFC-152a, difluoroethane], for which, in series [1], the “GWP (100 Yr)” value is 140. Also, in the series “Atmospheric lifetime”, the “Atmospheric Lifetime (Yr)” value worked out at 1.5 Yr.

Regarding `C=C(Cl)C(F)(F)F` [HFCO-1233xf, 1,1,1-trifluoro-2-chloro-propene], the “GWP (100 Yr)” value in series [1] is given as less than 20. The “Atmospheric Lifetime (Yr)” value in “Atmospheric lifetime” is given as less than 0.1 Yr.

Consider `C=C(F)C(F)(F)F` [HFO-1234yf, 1,1,1,2-tetrafluoropropene], for which the “GWP (100 Yr)” value in series [1] worked out at 4. The “Atmospheric Lifetime (Yr)” value in the series “Atmospheric lifetime” is listed as 0.04 Yr.

Turning to `FN(F)F` [NF3, nitrogen trifluoride], the “GWP (100 Yr)” value in series [1] was 10,800. Moreover, the “Atmospheric Lifetime (Yr)” value in the series “Atmospheric lifetime” worked out at 740 Yr.

`FS(F)(F)(F)(F)F` [SF6, sulfurhexafluoride]: the “GWP (100 Yr)” value in series [1] is 23,900. Further, in “Atmospheric lifetime”, the “Atmospheric Lifetime (Yr)” value is on record as 3,200 Yr.

For `O=S(=O)(F)F` [SO2F2, sulfuryl fluoride], the “GWP (100 Yr)” value in series [1] came out at 0.1. The “Atmospheric Lifetime (Yr)” value in “Atmospheric lifetime” is reported as “dissipates quickly”.

`FC(F)(F)/C=C\Cl` [cis-HFCO-1233zd, cis-1,1,1-trifluoro-3-chloro-propene]: in series [1], the “GWP (100 Yr)” value is recorded as less than 20. Further, the “Atmospheric Lifetime (Yr)” value in the series “Atmospheric lifetime” is reported as less than 0.1 Yr.

Consider `F/C=C(\F)C(F)F` [cis-HFO-1234ye], for which, in series [1], the “GWP (100 Yr)” value was less than 15. For the same molecule, the “Atmospheric Lifetime (Yr)” value in the series “Atmospheric lifetime” is reported as less than 0.1 Yr.

As to `FC(F)(F)/C=C/Cl` [trans-HFCO-1233zd, trans-1,1,1-trifluoro-3-chloro-propene], the “GWP (100 Yr)” value in series [1] is listed as less than 20. For the same molecule, the “Atmospheric Lifetime (Yr)” value in the series “Atmospheric lifetime” was less than 0.1 Yr.

Turning to `F/C=C/C(F)(F)F` [trans-HFO-1234ze, trans-1,3,3,3-tetrafluoropropene], the “GWP (100 Yr)” value in series [1] stood at 6. Moreover, in the series “Atmospheric lifetime”, the “Atmospheric Lifetime (Yr)” value came to 0.05 Yr.

With methoxy-nonafluorobutane [HFE-7100], in series [1], the “GWP (100 Yr)” value was found to be 320. Further, the “Atmospheric Lifetime (Yr)” value in “Atmospheric lifetime” is listed as 4.1 Yr.
